Experiment [1] deals with EB1, NanoBRET fusion (not stated (human or mouse cDNA cloned)) (UniProt Q15691). The experiment is described as follows: FRET or BRET; NanoBRET in HEK293T cells transfected with 500 ng pHTNW-ORF (HaloTag) and 5 ng pNLF1W-ORF; corrected NanoBRET ratio.
In experiment [2] the target is EB2, NanoBRET fusion (not stated (human or mouse cDNA cloned)) (UniProt Q15555). The description is as above.

These are yes or no findings as the source states them, for the method shown. In cells and extracts the contact can be indirect. Some binding calls cover weakened binding; strength is not graded here. Tags and fused reporters may be left off the sequences shown.

The source of these data is paper PMC6138660.

B1: RBM6, NanoBRET fusion (protein, UniProt P78332 1-1123)
chain: MWGDSRPANRTGPFRGSQEERFAPGWNRDYPPPPLKSHAQERHSGNFPGRDSLPFDFQGHSGPPFANVEEHSFSYGARDGPHGDYRGGEGPGHDFRGGDFSSSDFQSRDSSQLDFRGRDIHSGDFRDREGPPMDYRGGDGTSMDYRGREAPHMNYRDRDAHAVDFRGRDAPPSDFRGRGTYDLDFRGRDGSHADFRGRDLSDLDFRAREQSRSDFRNRDVSDLDFRDKDGTQVDFRGRGSGTTDLDFRDRDTPHSDFRGRHRSRTDQDFRGREMGSCMEFKDREMPPVDPNILDYIQPSTQDREHSGMNVNRREESTHDHTIERPAFGIQKGEFEHSETREGETQGVAFEHESPADFQNSQSPVQDQDKSQLSGREEQSSDAGLFKEEGGLDFLGRQDTDYRSMEYRDVDHRLPGSQMFGYGQSKSFPEGKTARDAQRDLQDQDYRTGPSEEKPSRLIRLSGVPEDATKEEILNAFRTPDGMPVKNLQLKEYNTGYDYGYVCVEFSLLEDAIGCMEANQGTLMIQDKEVTLEYVSSLDFWYCKRCKANIGGHRSSCSFCKNPREVTEAKQELITYPQPQKTSIPAPLEKQPNQPLRPADKEPEPRKREEGQESRLGHQKREAERYLPPSRREGPTFRRDRERESWSGETRQDGESKTIMLKRIYRSTPPEVIVEVLEPYVRLTTANVRIIKNRTGPMGHTYGFIDLDSHAEALRVVKILQNLDPPFSIDGKMVAVNLATGKRRNDSGDHSDHMHYYQGKKYFRDRRGGGRNSDWSSDTNRQGQQSSSDCYIYDSATGYYYDPLAGTYYDPNTQQEVYVPQDPGLPEEEEIKEKKPTSQGKSSSKKEMSKRDGKEKKDRGVTRFQENASEGKAPAEDVFKKPLPPTVKKEESPPPPKVVNPLIGLLGEYGGDSDYEEEEEEEQTPPPQPRTAQPQKREEQTKKENEEDKLTDWNKLACLLCRRQFPNKEVLIKHQQLSDLHKQNLEIHRKIKQSEQELAYLERREREGKFKGRGNDRREKLQSFDSPERKRIKYSRETDSDRKLVDKEDIDTSSKGGCVQQATGWRKGTGLGYGHPGLASSEEAEGRMRGPSVGASGRTSKRQSNETYRDAVRRVMFARYKELD
In the case of B1, the binding entry in experiment [1] was “no binding”; in experiment [2], “binds”.
